About 170 (0.05%) of roughly 340,000 compounds were called active. Inconclusive results, whose numbers are uncertain, are shown with a selection of clear calls. Calls follow the shape of the dose curve; as a rule, active = well fitted inhibition curve with a large enough effect in the signal ratio, with a control signal flat (not every such curve was filed as active); inconclusive = small, poorly fitted or top-dose-only effect, or effect the other way, or a change in a side signal; inactive = flat fitted curve, though single readings scatter; the % refers to the signal ratio. Potencies beside an inconclusive call are fits to weak or partial responses and may not hold up.
assay: qHTS Assay to Find Inhibitors of Chronic Active B-Cell Receptor Signaling; conditions: ABC-DLBCL IkBa-CBG/CBR reporter, luminescence ratio (green luciferase fused to IkBa over red control in TMD8 lymphoma cells), 4 h; activity change, negative = inhibition: at 46.1 µM (top of the series) unless noted;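 as to activity change, negative = inhibition: plate controls were basal doxycycline-induced cells for no effect and cells given 10 µM MG132 for full effect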
Summary of the method: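 Compounds up to 46 uM were incubated four hours with TMD8 cells whose green CBG68 luciferase is fused to IkappaBalpha; red CBR luminescence normalised the signal, and concentration-effect curves were fitted to fusion, red and ratio data.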
Potency is read from the fitted curve at half-maximal effect.

**Q.** With `CCC(Oc1ccccc1)C(=O)Nc1cc(C)on1` (stereo not given) as the compound, how does the activity change, negative = inhibition read?
**A.** inactive

**Q.** For `O=C(NCCc1ccc(Cl)cc1)C1CCN(C(=O)c2sccc2-n2cccc2)CC1`, which activity change, negative = inhibition is on record?
**A.** inconclusive: 3.19%

**Q.** Which Potency does the source give for `O=C(Nc1ccccn1)c1onc2c1CCCC2` here?
**A.** inconclusive: 18.4 µM [falling, single point]

**Q.** With `CCOC(=O)Cn1c(=N)n(CCOc2cccc(C)c2)c2ccccc21` as the compound, how does the activity change, negative = inhibition read?
**A.** inactive

**Q.** With `COc1cc(/C=C2/NC(=O)N(Cc3ccccc3F)C2=O)ccc1Oc1ccc([N+](=O)[O-])cn1` as the compound, how does the activity change, negative = inhibition read?
**A.** inactive

**Q.** For `O=C(Nc1cccc(-c2cn3ccccc3n2)c1)c1ccccc1`, which activity change, negative = inhibition is on record?
**A.** inactive

**Q.** Which Potency does the source give for `Cc1ccc2c(c1)Oc1ccc(NC(=O)CCl)cc1C(=O)N2` here?
**A.** inconclusive: 8.91 µM [cytotoxic, partial curve]

**Q.** For `O=C(O)c1cccc(CN2C(=O)c3ccccc3C2=O)c1`, which activity change, negative = inhibition is on record?
**A.** inactive

**Q.** For `Cc1nn(CCC(=O)NNC(=S)Nc2ccccc2)c(C)c1Br`, which Potency is on record?
**A.** inconclusive: 9.2 µM [falling, partial curve]

**Q.** For `Nc1c(C(=O)Nc2ccc3c(c2)OCCO3)nnn1Cc1ccc(Cl)cc1`, which activity change, negative = inhibition is on record?
**A.** inconclusive: -3.82%

**Q.** Which Potency does the source give for `COc1cc(Nc2c3c(nc4ccccc24)CCCC3)cc(OC)c1OC` here?
**A.** inconclusive: 35.5 µM [falling, partial curve, poor fit]

**Q.** With `Cc1nc(C#N)c(NCc2ccc3c(c2)OCO3)o1` as the compound, how does the Potency read?
**A.** inconclusive: 9.2 µM [falling, partial curve, poor fit]

**Q.** Which activity change, negative = inhibition does the source give for `O=C(COC(=O)/C=C/c1ccccc1)NNC(=O)c1ccc([N+](=O)[O-])cc1` here?
**A.** inconclusive: 11.5%

**Q.** Which Potency does the source give for `NC(N)=NN=C1CCCCCCCCCCC1` here?
**A.** inconclusive: 14.1 µM [falling, single point]

**Q.** Which Potency does the source give for `Cc1ccc(-c2cc(-c3cccs3)[nH]n2)c(O)c1` here?
**A.** inconclusive: 16.4 µM [falling, partial curve]

**Q.** Which activity change, negative = inhibition does the source give for `Cc1c(C(=O)OCC(C)C)[nH]c2c1C(=O)CC(c1cccs1)C2` (stereo not given) here?
**A.** inconclusive: -21.4%

**Q.** For `CC1=C(C(=O)N2CCOCC2)C(c2cc(C)cs2)NC(=O)N1` (stereo not given), which activity change, negative = inhibition is on record?
**A.** inconclusive: 4.62%

**Q.** Which activity change, negative = inhibition does the source give for `CCCCNC(=O)COn1nnc2ccc(S(=O)(=O)N3CCOCC3)cc21` here?
**A.** inactive

**Q.** With `CC1=C(C(=O)Nc2cccc(C(=O)NC3CCCC(C)C3C)c2)SCCO1` (stereo not given) as the compound, how does the activity change, negative = inhibition read?
**A.** inconclusive: -1.81%

**Q.** For `Cc1cc(C)c(NC(=O)CNC(=O)COC(=O)Cc2cccs2)c(C)c1`, which activity change, negative = inhibition is on record?
**A.** inactive

**Q.** Which activity change, negative = inhibition does the source give for `O=C(CCCOc1ccc(Cl)cc1Cl)N/N=C/c1ccccc1` here?
**A.** inconclusive: -13.2%

**Q.** With `O=C(Nc1nc(COc2ccccc2)cs1)c1ccccc1F` as the compound, how does the Potency read?
**A.** inconclusive: 32.6 µM [falling, partial curve, poor fit]

**Q.** For `COc1cn(-c2ccccc2)nc1C(=O)Nc1ccccc1`, which Potency is on record?
**A.** inconclusive: 15.8 µM [falling, single point]

**Q.** For `CC(C)Cc1ccc(CN2CCCC(NC(=O)c3ccnn3C)C2)cc1` (stereo not given), which activity change, negative = inhibition is on record?
**A.** inconclusive: -13.3%

**Q.** Which activity change, negative = inhibition does the source give for `Cc1cc2nc(-c3ccc(SCc4ccc(C(=O)O)cc4)nc3)[nH]c2cc1C` here?
**A.** inactive

**Q.** Which activity change, negative = inhibition does the source give for `CC1(C)CC(=O)C(=Cc2cn(-c3ccccc3)nc2-c2ccc(Cl)cc2)C(=O)C1` here?
**A.** inconclusive: 14.3%

**Q.** Which activity change, negative = inhibition does the source give for `COc1ccccc1NC(=O)C1C2C=CC(C2)C1C(=O)NCc1cccnc1` (stereo not given) here?
**A.** inactive

**Q.** With `COC(=O)CSc1ccc2c(N)c(C(=O)OC)sc2c1` as the compound, how does the Potency read?
**A.** inconclusive: 13 µM [rising, partial curve, poor fit]

**Q.** With `CC(C)c1ccc(-c2c(C#N)c(N)nc3c2CCCCC3)cc1` as the compound, how does the Potency read?
**A.** inconclusive: 25.9 µM [falling, partial curve, poor fit]

**Q.** For `CCN(CC)CCNC(=O)c1ccc(NC(=O)c2ccccc2-c2ccc(C(F)(F)F)cc2)cc1`, which activity change, negative = inhibition is on record?
**A.** inactive

**Q.** Which activity change, negative = inhibition does the source give for `CC(OC(=O)Cc1n[nH]c(=O)c2ccccc12)C(=O)Nc1ccc(Cl)cn1` (stereo not given) here?
**A.** inconclusive: -17.7%

**Q.** With `Cc1cc(C)c2nc(NC(=O)c3cc(C)on3)sc2c1` as the compound, how does the Potency read?
**A.** inconclusive: 20.6 µM [falling, partial curve]

**Q.** With `CN(/N=C/c1cccc(Br)c1)C1=NS(=O)(=O)c2ccccc21` as the compound, how does the activity change, negative = inhibition read?
**A.** inconclusive: 12.5%

**Q.** With `Cc1cccc(-n2cnc(C(=O)N/N=C\c3ccc(Br)cc3)c2)n1` as the compound, how does the activity change, negative = inhibition read?
**A.** inconclusive: 6.68%

**Q.** For `O=C(Nc1ccccc1Br)c1ccc(OC(=S)N2CCOCC2)cc1`, which activity change, negative = inhibition is on record?
**A.** inconclusive: 10.9%

**Q.** With `Cc1ccc(/C=C/C(=O)Nc2ncc(C)s2)o1` as the compound, how does the Potency read?
**A.** inconclusive: 18.4 µM [falling, single point]

**Q.** Which activity change, negative = inhibition does the source give for `Clc1nc(CN2CCCCC2)nc2sc3c(c12)CCC3` here?
**A.** inconclusive: -13.2%

**Q.** With `S=C(NCCC1=CCCCC1)Nc1ccccc1` as the compound, how does the activity change, negative = inhibition read?
**A.** inconclusive: 17.6%

**Q.** Which activity change, negative = inhibition does the source give for `O=C(c1ccc(Cl)c(S(=O)(=O)N2CCc3ccccc32)c1)N1CCN(c2ccccc2O)CC1` here?
**A.** inconclusive: -10.6%

**Q.** For `CC(C)c1ccc(N2C(=O)N(Cc3ccccc3Cl)c3ccccc3S2(=O)=O)cc1`, which activity change, negative = inhibition is on record?
**A.** inconclusive: -13.1%

**Q.** For `COc1ccc(OC)c(NC(=O)CNC(c2ccccc2)c2ccccc2)c1`, which activity change, negative = inhibition is on record?
**A.** inconclusive: 5.97%

**Q.** Which Potency does the source give for `COc1ccc(C2=NOC(COc3ccc4c(C)cc(=O)oc4c3)C2)c(OC)c1` (stereo not given) here?
**A.** inconclusive: 35.5 µM [falling, single point]

**Q.** With `COc1ccccc1C(=O)NC(=O)COC(=O)C1CC1` as the compound, how does the Potency read?
**A.** inconclusive: 29.1 µM [falling, single point]

**Q.** With `COc1ccc(NC(=O)c2ccc(C)cc2)c[n+]1[O-]` as the compound, how does the activity change, negative = inhibition read?
**A.** inactive

**Q.** For `CC(C)[C@H](CO)Nc1nc(NCc2ccc(S(N)(=O)=O)cc2)c2ncn(C(C)C)c2n1`, which Potency is on record?
**A.** inconclusive: 5.01 µM [rising, full curve, poor fit]

**Q.** For `COc1ccc2c3c(c(=O)oc2c1)C1O[C@](CCCCN2C(=O)c4ccccc4C2=O)(Cc2cc(OC)c(OC)cc21)O3`, which Potency is on record?
**A.** inconclusive: 2.51 µM [rising, partial curve, poor fit]

**Q.** With `CCN(Cc1ccccc1)S(=O)(=O)c1ccc(F)c(C(=O)Nc2cc(C(F)(F)F)ccc2Cl)c1` as the compound, how does the activity change, negative = inhibition read?
**A.** inactive

**Q.** Which activity change, negative = inhibition does the source give for `Cc1[nH]c2ccc(F)cc2c1CCN(Cc1ccncc1)C(=S)Nc1ccc(F)cc1` here?
**A.** inconclusive: 0.991%

**Q.** Which activity change, negative = inhibition does the source give for `COc1ccc(-c2csc(N3CCSCC3)n2)cc1` here?
**A.** inconclusive: 2.09%

**Q.** For `O=[N+]([O-])c1ccc(COc2cccc(CNc3ccc(Br)cc3)c2)cc1`, which activity change, negative = inhibition is on record?
**A.** inconclusive: -0.605%

Reference: PubChem BioAssay AID493014 (National Center for Advancing Translational Sciences (NCATS), 2011)
